Publication PMC8887482
These are yes or no findings as the source states them, for the method shown. In cells and extracts the contact can be indirect. Some binding calls cover weakened binding; strength is not graded here. For some assays here: Sequences can lack the tags named with a protein.

By UniProt entry, the sequences of proteins in these tests, tags left out.
UniProt O55170: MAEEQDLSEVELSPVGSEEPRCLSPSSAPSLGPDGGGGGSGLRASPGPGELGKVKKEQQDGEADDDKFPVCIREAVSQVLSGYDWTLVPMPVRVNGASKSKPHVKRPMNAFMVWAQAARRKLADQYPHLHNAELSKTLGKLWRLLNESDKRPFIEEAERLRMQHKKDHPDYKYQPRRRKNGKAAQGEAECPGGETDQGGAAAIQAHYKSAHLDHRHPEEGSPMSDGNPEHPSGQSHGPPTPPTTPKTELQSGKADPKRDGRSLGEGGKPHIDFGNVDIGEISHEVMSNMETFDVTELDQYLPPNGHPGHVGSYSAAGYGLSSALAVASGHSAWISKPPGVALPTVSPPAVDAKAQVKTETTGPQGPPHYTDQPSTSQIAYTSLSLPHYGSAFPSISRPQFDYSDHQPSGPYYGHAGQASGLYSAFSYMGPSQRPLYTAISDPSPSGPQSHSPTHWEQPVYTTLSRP

What was measured:
[1] = molecular target: T1, Zfp276 (full-length murine Zfp276, pCMV5 expression plasmid) (mouse) (UniProt Q8CE64); test: co-IP; extracts from HEK293T cells transfected with Sox10 and Zfp276 expression vectors; precipitation with rabbit anti-Zfp276 or rabbit anti-Sox10 antiserum and Protein A-Sepharose; western blot
T1 sequence: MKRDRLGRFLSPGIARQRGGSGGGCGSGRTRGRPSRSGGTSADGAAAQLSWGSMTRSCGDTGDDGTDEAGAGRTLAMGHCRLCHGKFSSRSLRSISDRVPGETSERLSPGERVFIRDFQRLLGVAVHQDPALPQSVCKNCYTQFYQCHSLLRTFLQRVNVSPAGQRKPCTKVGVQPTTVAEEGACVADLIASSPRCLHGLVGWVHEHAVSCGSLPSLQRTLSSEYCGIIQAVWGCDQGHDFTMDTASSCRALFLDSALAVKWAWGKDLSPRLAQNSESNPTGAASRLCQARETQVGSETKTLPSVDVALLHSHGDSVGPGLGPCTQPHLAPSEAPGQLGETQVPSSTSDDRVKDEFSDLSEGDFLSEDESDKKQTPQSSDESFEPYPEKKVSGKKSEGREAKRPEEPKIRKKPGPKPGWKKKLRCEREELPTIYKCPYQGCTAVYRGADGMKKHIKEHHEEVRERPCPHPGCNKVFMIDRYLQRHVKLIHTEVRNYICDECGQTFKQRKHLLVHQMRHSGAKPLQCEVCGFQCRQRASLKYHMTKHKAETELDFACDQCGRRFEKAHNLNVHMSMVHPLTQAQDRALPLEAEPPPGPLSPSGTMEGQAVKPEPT

[2] = molecular target: T2, myc-Zeb2 (Zeb2/Sip1 with N-terminal 6xmyc tag, pCMV5), in HEK293T (UniProt Q9R0G7); test: co-IP; HEK293T lysates overexpressing myc-Zeb2, Zfp276 or a combination; with or without DNaseI; precipitation with anti-myc antibody, Zfp276 detected with anti-Zfp276 antiserum
T2 sequence: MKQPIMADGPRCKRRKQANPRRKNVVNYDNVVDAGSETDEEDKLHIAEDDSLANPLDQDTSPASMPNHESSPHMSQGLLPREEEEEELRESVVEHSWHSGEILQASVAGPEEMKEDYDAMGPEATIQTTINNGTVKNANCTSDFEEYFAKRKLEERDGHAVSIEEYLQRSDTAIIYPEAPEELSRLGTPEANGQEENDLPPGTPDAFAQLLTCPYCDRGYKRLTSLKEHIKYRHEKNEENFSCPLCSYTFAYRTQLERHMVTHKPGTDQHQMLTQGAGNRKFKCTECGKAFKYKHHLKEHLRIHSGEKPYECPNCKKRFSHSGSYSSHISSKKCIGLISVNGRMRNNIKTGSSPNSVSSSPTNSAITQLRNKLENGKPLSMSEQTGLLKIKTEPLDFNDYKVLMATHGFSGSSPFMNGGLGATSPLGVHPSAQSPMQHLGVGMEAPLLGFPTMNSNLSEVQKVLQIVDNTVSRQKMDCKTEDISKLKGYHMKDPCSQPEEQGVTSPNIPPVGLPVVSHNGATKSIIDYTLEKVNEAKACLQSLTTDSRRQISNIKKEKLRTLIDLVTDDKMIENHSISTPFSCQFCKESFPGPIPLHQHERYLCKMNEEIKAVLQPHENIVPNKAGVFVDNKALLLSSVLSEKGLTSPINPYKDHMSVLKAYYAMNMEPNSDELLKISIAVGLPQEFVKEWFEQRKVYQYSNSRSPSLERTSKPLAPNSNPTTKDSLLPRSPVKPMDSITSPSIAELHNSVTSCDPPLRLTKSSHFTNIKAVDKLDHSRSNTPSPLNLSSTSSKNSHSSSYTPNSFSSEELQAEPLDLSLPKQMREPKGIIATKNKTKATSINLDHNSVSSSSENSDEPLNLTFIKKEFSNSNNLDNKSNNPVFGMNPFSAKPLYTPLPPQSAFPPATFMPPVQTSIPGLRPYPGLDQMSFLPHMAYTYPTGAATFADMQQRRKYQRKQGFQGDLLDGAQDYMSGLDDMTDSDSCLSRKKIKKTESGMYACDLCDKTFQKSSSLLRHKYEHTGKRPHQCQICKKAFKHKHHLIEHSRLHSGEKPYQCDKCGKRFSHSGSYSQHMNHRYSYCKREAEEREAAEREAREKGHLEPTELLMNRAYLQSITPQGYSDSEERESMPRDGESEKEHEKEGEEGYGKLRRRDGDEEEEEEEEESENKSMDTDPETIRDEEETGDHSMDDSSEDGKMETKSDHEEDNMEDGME

[3] = molecular target: Sox10 (pCMV5 expression vector) (UniProt O55170); test: co-IP; extracts from HEK293T cells transfected with Sox10 and Zfp276 expression vectors; precipitation with rabbit anti-Zfp276 or rabbit anti-Sox10 antiserum and Protein A-Sepharose; western blot
[4] = molecular target: T3, EGFP-Cterm (EGFP fused to the C-terminal fragment of Zfp276, amino acids 409 to 614) (mouse) (UniProt Q8CE64); test: co-IP; HEK293T lysate containing myc-Zeb2 co-incubated with lysates of EGFP-tagged Zfp276 or its fragments together with anti-GFP antibody; myc-Zeb2 detected with anti-myc antibody
T3 sequence: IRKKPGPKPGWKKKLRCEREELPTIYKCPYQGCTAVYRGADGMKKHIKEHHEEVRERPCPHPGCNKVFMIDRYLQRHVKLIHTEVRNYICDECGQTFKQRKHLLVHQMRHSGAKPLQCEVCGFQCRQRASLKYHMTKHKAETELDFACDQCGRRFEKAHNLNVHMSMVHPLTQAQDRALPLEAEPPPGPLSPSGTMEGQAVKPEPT

[5] = molecular target: T4, myc-Zeb2 (pCMV5-myc-Zeb2), in CG4 cells (UniProt Q9R0G7); test: proximity ligation; CG4 cells transfected with pCMV5-myc-Zeb2, 3 days under differentiating conditions, fixed with 2% paraformaldehyde; Duolink kit with mouse anti-myc antibody and anti-Zfp276 antiserum; single antibodies as controls
T4 sequence: T2 sequence

Sox10 (pCMV5 expression vector) (from UniProt O55170 1-466)
binding [1]: no binding

B1: Zfp276 (full-length murine Zfp276, pCMV5 expression plasmid) (protein, UniProt Q8CE64-1 1-614)
chain: T1 sequence
binding [2]: binds
binding [3]: no binding

B2: myc-Zeb2 (Zeb2/Sip1 with N-terminal 6xmyc tag, pCMV5), in HEK293T (protein, UniProt Q9R0G7 1-1215)
chain: T2 sequence
binding [4]: binds

B3: endogenous Zfp276 of differentiated CG4 cells (protein, UniProt F1LN08 1-609)
chain: MKRDRLGRFLSPGIARQRGSSGSSCGSGRTRGRPSRTGGSSADGAAPQLSWGSTRSCGDTGEDGTDEAGAGRTLTMGHCRLCHGKFSSRSLRSISERVPGETSERLSPGERVFIRDFQRLLGVAVHQDPALPQFVCKNCYTQFYQCHSLLRSFLQRVNVSPAGQRKPCTKVGVQPPTVAEEGACMADLITSSPQCLHGLVGWVHEHAVNCGCLPSLQRTLSSEYCGVIQAVWGCDQGHDFTMDTDSGCRALLLDSALAVKWGKELAPRLAQSSASDPTGAASQLCQARETQVGSETKTLPSVDVALLHSHGDSVGPGLSPYIQPNLAPSEAPGQLGEKQVPSSTSDDRVKDEFSDLSEGDVLSEDDSDKKQTPQSSDESFEPYPEKKVSGKKSEGKEAKRPEEPKIRKKPGPKPGWKKKLRCEREELPTIYKCPYQGCTAVYRGADGMKKHIKEHHEEVRERPCPHPGCNKVFMIDRYLQRHVKLIHTEVRNYICDECGQTFKQRKHLLVHQMRHSGAKPLQCEVCGFQCRQRASLKYHMTKHKAETELDFACDQCGRRFEKAHNLNVHMSMVHPLTQTQALPLEAEPPPGPLSLAGTVEGQAVKPEPT
binding [5]: binds
